{"source": "the supplement of paper PMC8728848", "binders": {"B1": {"name": "AntigenI/IIA3VP1 (Streptococcus mutans), C9E3B4 (protein)", "chain": "AANEADYQAKLTAYQTELARVQKANADAKAAYEAAVAANNAANAALTAENTAIKKRNADAKADYEAKLAKYQADLAKYQKDLADYPVKLKAYEDEQASIKAALAELEKHKNEDGNLTEPSAQNLVYDLEPNANLSLTTDGKFLKASAVDDAFSKSTSKAKYDQKILQLDDLDITNLEQSNDVASSMELYGNFGDKAGWSTTVSNNSQVKWGSVLLERGQSATATYTNLQNSYYNGKKISKIVYKYTVDPKSKFQGQKVWLGIFTDPTLGVFASAYTGQVEKNTSIFIKNEFTFYDEDGKPINFDNALLSVASLNREHNSIEMAKDYSGKFVKISGSSIGEKNGMIYATDTLNFKQGEGGSRWTMYKNSQAGSGWDSSDAPNSWYGAGAIKMSGPNNYVTVGATSATNVMPVSDMPVVPGKDNTDGKKPNIWYSLNGKIRAVNVPKVTKEKPTPPVKPTAPTKPTYETEKPLKPAPVAPNYEKEPTPPTRLEHHHHHH"}}, "experiment_in_all_cases": "glycan array binding signal (z-score within array); higher = stronger binding", "settings_in_all_cases": "glycan notation: IUPAC condensed, linker removed", "key": {"Fuc(a1-2)Gal": {"target": "Fuc(a1-2)Gal", "procedure,_shortened": "(§1)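 Columns mapping to the same glycan were averaged after glycan names were converted to IUPAC-condensed notation. The data come from 3228 arrays in the Consortium for Functional Glycomics database, limited to those with an available protein sequence. Binding is reported as a within-array Z-score averaged across arrays of one protein sequence and across linkers.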"}, "Fuc(a1-2)Gal(b1-3)GalNAc": {"target": "Fuc(a1-2)Gal(b1-3)GalNAc", "procedure,_shortened": "as §1"}, "[1]": {"target": "Fuc(a1-2)Gal(b1-3)GalNAc(a1-3)[Fuc(a1-2)]Gal(b1-4)Glc", "procedure,_shortened": "as §1"}, "[2]": {"target": "Fuc(a1-2)Gal(b1-3)GalNAc(a1-3)[Fuc(a1-2)]Gal(b1-4)GlcNAc", "procedure,_shortened": "as §1"}, "[3]": {"target": "Fuc(a1-2)Gal(b1-3)GalNAc(b1-3)Gal", "procedure,_shortened": "as §1"}, "[4]": {"target": "Fuc(a1-2)Gal(b1-3)GalNAc(b1-3)Gal(a1-4)Gal(b1-4)Glc", "procedure,_shortened": "as §1"}, "[5]": {"target": "Fuc(a1-2)Gal(b1-3)GalNAc(b1-4)[Neu5Ac(a2-3)]Gal(b1-4)Glc", "procedure,_shortened": "as §1"}, "Fuc(a1-2)Gal(b1-3)GlcNAc": {"target": "Fuc(a1-2)Gal(b1-3)GlcNAc", "procedure,_shortened": "as §1"}, "[6]": {"target": "Fuc(a1-2)Gal(b1-3)GlcNAc(b1-2)Man(a1-3)[Fuc(a1-2)Gal(b1-3)GlcNAc(b1-2)Man(a1-6)]Man(b1-4)GlcNAc(b1-4)GlcNAc", "procedure,_shortened": "as §1"}, "[7]": {"target": "Fuc(a1-2)Gal(b1-3)GlcNAc(b1-2)Man(a1-3)[Fuc(a1-2)Gal(b1-3)GlcNAc(b1-2)Man(a1-6)]Man(b1-4)GlcNAc(b1-4)[Fuc(a1-6)]GlcNAc", "procedure,_shortened": "as §1"}, "[8]": {"target": "Fuc(a1-2)Gal(b1-3)GlcNAc(b1-3)Gal(b1-4)Glc", "procedure,_shortened": "as §1"}, "[9]": {"target": "Fuc(a1-2)Gal(b1-3)GlcNAc(b1-3)GalNAc", "procedure,_shortened": "as §1"}, "[10]": {"target": "Fuc(a1-2)Gal(b1-3)GlcNAc(b1-3)[Fuc(a1-2)Gal(b1-3)GlcNAc(b1-6)]GalNAc", "procedure,_shortened": "as §1"}, "[11]": {"target": "Fuc(a1-2)Gal(b1-3)GlcNAc(b1-3)[Gal(b1-4)GlcNAc(b1-6)]Gal(b1-4)Glc", "procedure,_shortened": "as §1"}, "[12]": {"target": "Fuc(a1-2)Gal(b1-3)GlcNAc(b1-3)[Neu5Ac(a2-6)Gal(b1-4)GlcNAc(b1-6)]Gal(b1-4)Glc", "procedure,_shortened": "as §1"}, "[13]": {"target": "Fuc(a1-2)Gal(b1-3)GlcNAc6S", "procedure,_shortened": "as §1"}, "[14]": {"target": "Fuc(a1-2)Gal(b1-3)[Fuc(a1-4)]GlcNAc", "procedure,_shortened": "as §1"}, "[15]": {"target": "Fuc(a1-2)Gal(b1-3)[Fuc(a1-4)]GlcNAc(b1-2)Man(a1-3)[Fuc(a1-2)Gal(b1-3)[Fuc(a1-4)]GlcNAc(b1-2)Man(a1-3)]Man(b1-4)GlcNAc(b1-4)GlcNAc", "procedure,_shortened": "as §1"}, "[16]": {"target": "Fuc(a1-2)Gal(b1-3)[Fuc(a1-4)]GlcNAc(b1-2)Man(a1-3)[Fuc(a1-2)Gal(b1-3)[Fuc(a1-4)]GlcNAc(b1-2)Man(a1-6)]Man(b1-4)GlcNAc(b1-4)[Fuc(a1-6)]GlcNAc(b1-4)[Fuc(a1-6)]GlcNAc", "procedure,_shortened": "as §1"}, "[17]": {"target": "Fuc(a1-2)Gal(b1-3)[Fuc(a1-4)]GlcNAc(b1-3)[Fuc(a1-3)[Gal(b1-4)]GlcNAc(b1-6)]Gal(b1-4)Glc", "procedure,_shortened": "as §1"}, "[18]": {"target": "Fuc(a1-2)Gal(b1-3)[Fuc(a1-4)]GlcNAc(b1-3)[Gal(b1-4)GlcNAc(b1-6)]Gal(b1-4)Glc", "procedure,_shortened": "as §1"}, "[19]": {"target": "Fuc(a1-2)Gal(b1-4)Fuc(a1-3)]GlcNAc(b1-2)Man(a1-3)[Fuc(a1-2)Gal(b1-4)[Fuc(a1-3)]GlcNAc(b1-2)Man(a1-6)]Man(b1-4)GlcNAc(b1-4)GlcNAc", "procedure,_shortened": "as §1"}, "Fuc(a1-2)Gal(b1-4)Glc": {"target": "Fuc(a1-2)Gal(b1-4)Glc", "procedure,_shortened": "as §1"}, "Fuc(a1-2)Gal(b1-4)Glc6S": {"target": "Fuc(a1-2)Gal(b1-4)Glc6S", "procedure,_shortened": "as §1"}, "Fuc(a1-2)Gal(b1-4)GlcNAc": {"target": "Fuc(a1-2)Gal(b1-4)GlcNAc", "procedure,_shortened": "as §1"}, "[20]": {"target": "Fuc(a1-2)Gal(b1-4)GlcNAc(b1-2)Man", "procedure,_shortened": "as §1"}, "[21]": {"target": "Fuc(a1-2)Gal(b1-4)GlcNAc(b1-2)Man(a1-3)[Fuc(a1-2)Gal(b1-4)GlcNAc(b1-2)Man(a1-6)]Man(b1-4)GlcNAc(b1-4)GlcNAc", "procedure,_shortened": "as §1"}, "[22]": {"target": "Fuc(a1-2)Gal(b1-4)GlcNAc(b1-2)Man(a1-3)[Fuc(a1-2)Gal(b1-4)GlcNAc(b1-2)Man(a1-6)]Man(b1-4)GlcNAc(b1-4)[Fuc(a1-6)]GlcNAc", "procedure,_shortened": "as §1"}, "[23]": {"target": "Fuc(a1-2)Gal(b1-4)GlcNAc(b1-2)[Fuc(a1-2)Gal(b1-4)GlcNAc(b1-4)]Man(a1-3)[Fuc(a1-2)Gal(b1-4)GlcNAc(b1-2)Man(a1-6)]Man(b1-4)GlcNAc(b1-4)GlcNAc", "procedure,_shortened": "as §1"}, "[24]": {"target": "Fuc(a1-2)Gal(b1-4)GlcNAc(b1-3)Gal(b1-4)GlcNAc", "procedure,_shortened": "as §1"}}, "note": "This is one part of the list.", "data": [{"binder": "B1", "values": [{"measurement": "glycan array binding signal (z-score)", "setting": "Fuc(a1-2)Gal", "result": -0.141}, {"measurement": "glycan array binding signal (z-score)", "setting": "Fuc(a1-2)Gal(b1-3)GalNAc", "result": -0.049}, {"measurement": "glycan array binding signal (z-score)", "setting": "[1]", "result": 0.028}, {"measurement": "glycan array binding signal (z-score)", "setting": "[2]", "result": -1.02}, {"measurement": "glycan array binding signal (z-score)", "setting": "[3]", "result": -0.871}, {"measurement": "glycan array binding signal (z-score)", "setting": "[4]", "result": -1.54}, {"measurement": "glycan array binding signal (z-score)", "setting": "[5]", "result": -0.35}, {"measurement": "glycan array binding signal (z-score)", "setting": "Fuc(a1-2)Gal(b1-3)GlcNAc", "result": -0.652}, {"measurement": "glycan array binding signal (z-score)", "setting": "[6]", "result": 0.716}, {"measurement": "glycan array binding signal (z-score)", "setting": "[7]", "result": 0.612}, {"measurement": "glycan array binding signal (z-score)", "setting": "[8]", "result": -1.26}, {"measurement": "glycan array binding signal (z-score)", "setting": "[9]", "result": 0.237}, {"measurement": "glycan array binding signal (z-score)", "setting": "[10]", "result": 0.422}, {"measurement": "glycan array binding signal (z-score)", "setting": "[11]", "result": -1.54}, {"measurement": "glycan array binding signal (z-score)", "setting": "[12]", "result": -1.19}, {"measurement": "glycan array binding signal (z-score)", "setting": "[13]", "result": 0.457}, {"measurement": "glycan array binding signal (z-score)", "setting": "[14]", "result": 0.481}, {"measurement": "glycan array binding signal (z-score)", "setting": "[15]", "result": 0.421}, {"measurement": "glycan array binding signal (z-score)", "setting": "[16]", "result": 0.615}, {"measurement": "glycan array binding signal (z-score)", "setting": "[17]", "result": -0.84}, {"measurement": "glycan array binding signal (z-score)", "setting": "[18]", "result": -0.77}, {"measurement": "glycan array binding signal (z-score)", "setting": "[19]", "result": 4.68}, {"measurement": "glycan array binding signal (z-score)", "setting": "Fuc(a1-2)Gal(b1-4)Glc", "result": -0.065}, {"measurement": "glycan array binding signal (z-score)", "setting": "Fuc(a1-2)Gal(b1-4)Glc6S", "result": 1.15}, {"measurement": "glycan array binding signal (z-score)", "setting": "Fuc(a1-2)Gal(b1-4)GlcNAc", "result": -0.565}, {"measurement": "glycan array binding signal (z-score)", "setting": "[20]", "result": 1.39}, {"measurement": "glycan array binding signal (z-score)", "setting": "[21]", "result": 1.5}, {"measurement": "glycan array binding signal (z-score)", "setting": "[22]", "result": 1.11}, {"measurement": "glycan array binding signal (z-score)", "setting": "[23]", "result": 0.656}, {"measurement": "glycan array binding signal (z-score)", "setting": "[24]", "result": -1.04}]}]}
